Measurements as given in PubChem BioAssay AID2551 (National Center for Advancing Translational Sciences (NCATS), 2010).
“And” between values parts separate entries of the source, which are not always exact repeats. Equal entries are not always repeated. About 17,000 (5.5%) of roughly 310,000 compounds were called active. The shares of active, inactive and inconclusive entries below differ from those in the screen. The call rests on the fitted dose curve; in most records, active means well fitted inhibition curve with a large enough effect; inconclusive means small, poorly fitted or top-dose-only effect, or effect the other way; inactive means no such curve, though single readings can be large or run the other way. Potencies beside an inconclusive call are fits to weak or partial responses and may not hold up.

Amino acid sequences for entries named in this document (tags omitted). A change or cut given only in a name is not applied to a line headed by its entry.
UniProt P51450: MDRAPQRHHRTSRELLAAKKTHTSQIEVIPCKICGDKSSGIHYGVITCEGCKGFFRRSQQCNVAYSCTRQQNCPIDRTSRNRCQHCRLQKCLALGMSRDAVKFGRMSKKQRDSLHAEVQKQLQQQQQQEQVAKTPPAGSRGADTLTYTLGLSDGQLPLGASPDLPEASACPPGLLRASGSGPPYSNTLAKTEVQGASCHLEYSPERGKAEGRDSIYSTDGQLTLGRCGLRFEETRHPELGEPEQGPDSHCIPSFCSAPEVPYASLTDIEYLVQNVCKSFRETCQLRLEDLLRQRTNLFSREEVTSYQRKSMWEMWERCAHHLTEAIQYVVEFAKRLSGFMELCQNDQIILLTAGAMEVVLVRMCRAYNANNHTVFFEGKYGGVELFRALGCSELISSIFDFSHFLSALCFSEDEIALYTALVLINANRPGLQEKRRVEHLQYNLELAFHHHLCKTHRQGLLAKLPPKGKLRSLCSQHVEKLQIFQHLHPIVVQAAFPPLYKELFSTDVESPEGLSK

target: Nuclear receptor ROR-gamma (Mus musculus) (UniProt P51450); assay: qHTS for inhibitors of ROR gamma transcriptional activity; details: Drosophila S2 Gal4-RORgamma UAS-luciferase reporter, 20 h; activity change, negative = inhibition: at 53.6 µM (top of the series); further: nearly all actives have a fitted effect of over 60% in size
Procedure, shortened: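 Stably transfected Drosophila Schneider cells are the test system, with ROR gamma fused to Gal4 and luciferase under UAS control; luminescence is read after 20 hr of 700 uM copper sulfate induction at ambient temperature.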
On the % scale 0 is the no-effect control and ±100 the full control effect; potency means the concentration at half of the fitted maximal effect.

Compound	Potency	activity change, negative = inhibition
N#CC1=C(S)N(c2ccccc2)C(c2ccc(-c3cc(Cl)ccc3Cl)o2)NC1=O (centres undefined)	active: 12.6 µM	–
COc1c2c(cc3c1C(c1c(O)c4ccccc4oc1=O)N(C)CC3)OCO2 (centres undefined)	inactive	–
COc1cccc(S(=O)(=O)NCC(=O)Nc2ccc(C(C)(C)C)cc2)c1	inconclusive: 12.6 µM [activator, partial curve]	–
O=C(c1cnsn1)N1CCC(CO)(Cc2cccc(F)c2)CC1	inactive	–
Cc1ccc(-c2cc(C(=O)O)c3cc(Br)ccc3n2)o1	inactive	–
CCN1CCN(CC(=O)Nc2sc3c(c2C#N)CCC(C)C3)CC1 (centres undefined)	inconclusive: 35.5 µM [inhibitor, single point]	–
Cn1c(=O)[nH]c(=O)c2c1nc(SCCCO)n2CCCc1ccccc1	inconclusive: 12.6 µM [activator, partial curve]	–
Cn1nnc(NC(=O)c2ccc(C(C)(C)C)cc2)n1	inconclusive: 11.2 µM [inhibitor, single point]	–
COc1cc(OC)c(CN2CCC(Cc3ccccc3)CC2)cc1Br	inactive	–
Cc1cccc(NC(=O)CN2C(=O)S/C(=C\c3cc(C)n(C)c3C)C2=O)c1	inconclusive: 22.4 µM [activator, partial curve]	–
O=C(Nc1ccccc1F)NC1CCCCCCC1	inconclusive: 0.501 µM [activator, full curve, poor fit]	–
Cc1cccc(NC(=O)CSc2nnc(CNC(=O)c3ccco3)o2)c1	inactive	–
BrC(=C\c1ccccc1)/C=N/N1CCN(c2ccccc2)CC1	inconclusive: 31.6 µM [inhibitor, single point]	–
CN(C)c1cccc(C(=O)OCC(=O)Nc2ccccc2-c2ccccc2)c1	inconclusive: 31.6 µM [activator, single point]	–
O=[N+]([O-])C(/C=C(\Cl)[N+](=O)[O-])=C(N1CCCCC1)N1CCCCC1	inconclusive: 14.1 µM [inhibitor, partial curve]	–
Cc1ccc(B(O)O)cc1	inactive	–
O=C(CCc1ccccc1)Nc1ccccc1C(=O)NCc1ccco1	inconclusive: 1.26 µM [activator, full curve, poor fit]	–
O=C(CCNc1ccc(F)cc1)c1ccco1	active: 11.2 µM	–
CC(=O)c1c(C)n([O-])c2cc(F)c(F)cc2[n+]1=O	inconclusive: 10 µM [inhibitor, partial curve]	–
COc1ccc2c(c1)OCC1=C2CCC2(C)C(=O)CC=C12 (centres undefined)	inconclusive: 15.8 µM [inhibitor, single point]	–
Nc1c(S(=O)(=O)c2ccccc2)c2nc3ccccc3nc2n1/N=C/c1cccc(O)c1	inactive	–
CCCCCSc1nnc(-c2ccccc2N)c(=O)[nH]1	inconclusive: 17.8 µM [activator, partial curve]	–
CC(=O)c1cccc(NC(=O)NCc2ccccn2)c1	inconclusive: 2.82 µM [activator, partial curve]	–
COC(=O)Cc1ccc(NC(=S)NC(C)(C)C)cc1	inconclusive: 11.2 µM [inhibitor, partial curve, poor fit]	–
COC(=O)c1ccc(C(=O)OC)c(NC(=O)CSc2cccc[n+]2[O-])c1	active: 5.01 µM	–

Entries of single compounds from above. Order of values: Potency | activity change, negative = inhibition
`Cc1cccc(NC(=O)CN2C(=O)S/C(=C\c3cc(C)n(C)c3C)C2=O)c1` as listed: inconclusive: 22.4 µM [activator, partial curve] | –
`CCN1CCN(CC(=O)Nc2sc3c(c2C#N)CCC(C)C3)CC1` (centres undefined) as listed: inconclusive: 35.5 µM [inhibitor, single point] | –
`O=C(CCc1ccccc1)Nc1ccccc1C(=O)NCc1ccco1` as listed: inconclusive: 1.26 µM [activator, full curve, poor fit] | –
`COc1cccc(S(=O)(=O)NCC(=O)Nc2ccc(C(C)(C)C)cc2)c1` as listed: inconclusive: 12.6 µM [activator, partial curve] | –

(list continues)

Compound	Potency	activity change, negative = inhibition
C#CCOC(=O)c1ccccc1C(=O)N(CC)CC	inconclusive: 5.01 µM [inhibitor, full curve, poor fit]	–
Cc1nn(C)cc1/C=N\NC(=O)c1csc2c1CCCC2	inconclusive: 12.6 µM [inhibitor, partial curve, poor fit]	–
Cc1cc(=O)c2ccccc2n1Cc1ccccc1	inconclusive: 12.6 µM [inhibitor, partial curve, poor fit]	–
CC1CCCCN1C(=O)Cn1cc(/C=C2/C(=O)Nc3ccccc32)c2ccccc21 (centres undefined)	inconclusive: 5.62 µM [activator, single point]	–
O=c1ccn(CCc2c[nH]c3ccccc23)c2c1CCCC2	inconclusive: 1.58 µM [inhibitor, partial curve]	–
CCOc1ccc(C(=O)c2nc3c(n2O)CCCC3)cc1	inconclusive: 17.8 µM [inhibitor, single point]	–
CCCOC(=O)c1ccc(NC(=O)CSC2=Nc3ccccc3C3CC=NN23)cc1 (centres undefined)	inconclusive: 22.4 µM [inhibitor, single point]	–
Cc1cccc(C)c1N1C(=O)CN(Cc2ccccc2)C1=S	inactive	–
COc1ccc(N2CC(C(=O)Nc3nc4ccc(OC)cc4s3)CC2=O)cc1 (centres undefined)	inconclusive: 15.8 µM [activator, partial curve]	–
COC(=O)[C@@]1(Cc2ccc(OC)cc2)[C@H]2c3cc(C(=O)N(C)C)n(Cc4ccc(C(F)(F)F)nc4)c3C[C@H]2CN1C(=O)c1ccccc1	inconclusive: 35.5 µM [activator, single point]	–
CCOC(=O)c1c(C)[nH]c(C(=O)NNC(=O)c2ccccc2)c1C	inconclusive: 17.8 µM [inhibitor, single point]	–
Cc1cccc(N=C2NN=C(c3ccc4c(c3)OCCO4)CS2)c1	active: 7.94 µM	–
CN1/C(=C/C(=S)NC(=O)C2CCC2)C(C)(C)c2ccccc21	active: 6.31 µM	–
Cc1ccc(S(=O)(=O)NCCCCCC(=O)Nc2c(C)n(C)n(-c3ccccc3)c2=O)cc1	inconclusive: 6.31 µM [activator, partial curve]	–
O=C(COc1ccccc1)Nc1nnc(-c2ccc(Cl)s2)o1	active: 12.6 µM	–
CS(=O)(=O)N(CC(=O)N1CCCC1)c1cc(Cl)ccc1Cl	inactive	–
CCOC(=O)c1ccc(NC(=O)c2nc[nH]c2C(=O)N2CCN(c3ccccc3)CC2)cc1	inconclusive: 6.31 µM [inhibitor, single point]	–
S=C(Nc1ccccc1)N1CCc2ccccc21	active: 11.2 µM	–
CCOc1ccccc1NC(=O)NC1CCCCCCC1	inactive	–
Cc1nonc1C1CCCN1C(=O)c1cc(COc2ccc(F)cc2Cl)on1 (centres undefined)	inconclusive: 12.6 µM [activator, partial curve]	–
C#CCNc1nc(CC)nc2c1nnn2Cc1ccccc1F	inconclusive: 0.794 µM [inhibitor, full curve, poor fit]	–
CN1CCN(CCCNC(=O)c2ccc(/C=C3\Oc4ccccc4N(Cc4ccc(Cl)cc4)C3=O)cc2)CC1	inconclusive: 14.1 µM [inhibitor, single point]	–
CCCCc1ccc(NC(=S)N2CCN(c3ccccn3)CC2)cc1	active: 15.8 µM	–
CC(c1ccccc1C(O)(c1ccccc1)c1ccccc1)N(C)C (centres undefined)	inconclusive: 35.5 µM [inhibitor, single point]	–
CC(C)CC(=O)NC(Nc1ccc([N+](=O)[O-])cc1)C(Cl)(Cl)Cl (centres undefined)	inconclusive: 35.5 µM [activator, single point]	–

Compound	Potency	activity change, negative = inhibition
O=S(=O)(Nc1nccs1)c1cc(Cl)ccc1Cl	inactive	–
O=C(O)C1CCC(=O)N1C1CCCC1 (centres undefined)	inconclusive: 10 µM [inhibitor, single point]	–
CCOC(=O)N1CCC(NC(=O)CN(c2ccc(C(C)C)cc2)S(=O)(=O)c2c(C)nn(C)c2C)CC1	inactive	–
CC(=O)/C=C/c1ccccc1O	inactive	–
COc1ccc(NC(=S)NC2CCCC2)c(OC)c1	active: 6.31 µM	–
CC(=O)OC[C@@H]1O[C@H](CCO/N=C(\C)CCN2CCCc3nc(C)c(C)cc32)C=C[C@@H]1OC(C)=O	–	inactive: 3.57% [at 10 µM]
Cc1cccc2c(=O)cc(C(F)(F)F)[nH]c12	inconclusive: 11.2 µM [activator, single point]	–
COc1cc(Cl)c(C)cc1NC(=O)c1ccccc1NC(=O)CN1CCOCC1	inactive	–
CC(=O)Nc1ccccc1OCC(=O)c1cc(C)n(Cc2cccs2)c1C	inactive	–
COC(=O)c1cc(S(=O)(=O)N2CCN(c3cccc(Cl)c3)CC2)c[nH]1	inconclusive: 14.1 µM [inhibitor, single point]	–
CCOC(=O)c1cnn(-c2ncnc3c2oc2ccccc23)c1N	inconclusive: 20 µM [activator, partial curve, poor fit]	–
COC(=O)c1sc(NC(=O)CSc2nnnn2-c2cccc(OC)c2)nc1C	inconclusive: 22.4 µM [inhibitor, single point]	–
CC[C@@]1(c2cccc(C)c2)C(=O)N(C(=O)OC)N1C(=O)OC	inconclusive: 10 µM [inhibitor, partial curve]	–
Cc1ccc(NC(=S)N(Cc2cccs2)Cc2cc3cc(C)ccc3[nH]c2=O)cc1	inactive	–
Cc1cccc(NC(=S)NNC(=O)c2csc3c2CCC(C)C3)c1 (centres undefined)	inconclusive: 20 µM [inhibitor, single point]	–
CCOC(=O)C1(Cc2cccc(OC)c2)CCN(Cc2ccc(OC)c(OC)c2)CC1	inactive	–
COc1cc(-n2c(-c3ccccc3)n[nH]c2=S)c(OC)cc1Cl	active: 5.01 µM	–
c1ccc2sc(SN3CCOCC3)nc2c1	active: 7.94 µM and active: 10 µM	–
CC(C)CC(=O)NC(=S)Nc1ccc(CN2CCOCC2)cc1	active: 4.47 µM	–
Cc1cc(-n2c(C)cc(C(=O)CSc3nnnn3-c3ccccc3)c2C)no1	inconclusive: 1.58 µM [activator, full curve]	–
COc1ccc(N2CCN(C(=O)CCNC(=O)Cn3ccc4ccccc4c3=O)CC2)cc1	inactive	–
COc1ccc(NC(=S)Nc2ccccc2F)c(OC)c1	active: 11.2 µM	–
Cn1c(-c2ccc(F)cc2)cnc1SCC(=O)Nc1ccccc1N1CCOCC1	inconclusive: 15.8 µM [activator, single point]	–
N#Cc1ccccc1NC(=O)c1ccc2c(c1)OCO2	inactive	–
